Measured values reported in the supplement of paper PMC4604168 (melanoma cell lines).
This is one part of the list. Many values rest on one well or one pass, so single values are uncertain.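 Cells were imaged in 1,536-well plates, and nuclei stained with an antibody against cleaved PARP were counted against all DNA-stained nuclei to give the apoptosis fraction. Screening doses were chosen to leave most cells alive, and resting and induced cleaved-PARP levels differ strongly between cell lines.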

Experiments:
Test in all cases: cleaved PARP positive nuclei fraction relative to DMSO control; melanoma cells; higher = more apoptosis
Details in all cases: library dose: low library concentration; 72 h
[1] = system: CBRC034 (line from a melanoma biopsy)
[2] = system: COLO792
[3] = system: COLO800
[4] = system: COLO829
[5] = system: G361
[6] = system: IPC-298
[7] = system: IST-MEL1
[8] = system: LB2518-MEL
[9] = system: LOXIMVI
[10] = system: MZ2-MEL
[11] = system: MeWo
[12] = system: RPMI7951
[13] = system: RVH-421
[14] = system: SkMel28
[15] = system: SkMel30
[16] = system: SkMel5
[17] = system: UACC257
[18] = system: UACC62

Row | Compound | cleaved PARP positive nuclei fraction [1] | cleaved PARP positive nuclei fraction [2] | cleaved PARP positive nuclei fraction [3] | cleaved PARP positive nuclei fraction [4] | cleaved PARP positive nuclei fraction [5] | cleaved PARP positive nuclei fraction [6] | cleaved PARP positive nuclei fraction [7] | cleaved PARP positive nuclei fraction [8] | cleaved PARP positive nuclei fraction [9] | cleaved PARP positive nuclei fraction [10] | cleaved PARP positive nuclei fraction [11] | cleaved PARP positive nuclei fraction [12] | cleaved PARP positive nuclei fraction [13] | cleaved PARP positive nuclei fraction [14] | cleaved PARP positive nuclei fraction [15] | cleaved PARP positive nuclei fraction [16] | cleaved PARP positive nuclei fraction [17] | cleaved PARP positive nuclei fraction [18]
1 | COc1cc2c(Oc3ccc4[nH]c(C)cc4c3F)ncnc2cc1OCCCN1CCCC1 [cediranib] + Cn1cc(/C=C2\C(=O)Nc3cccnc32)c2ccccc21 [GW441756] (first compound 0.4 µM, partner dose 0.4 µM) | 82.1% | 89.9% | 65.6% | 142% | 63.2% | 78.2% | 138% | 92.1% | 64.9% | 159% | 99% | 43.3% | 29.2% | 150% | 92.6% | 90.1% | 167% | 47.3%
2 | Oc1cc(-c2nc(-c3ccccc3)[nH]c2-c2ccncc2)ccc1Cl + Cc1cc([N+](=O)[O-])ccc1NS(=O)(=O)c1cc(Cl)ccc1Cl [FH535] (first compound 0.2 µM, partner dose 1 µM) | 382% | 88.2% | 132% | 72.5% | 94.9% | 83.4% | 109% | 88.4% | 30% | 105% | 112% | 69.4% | 77.8% | 151% | 59.1% | 78.6% | 99.6% | 220%
3 | COc1ccc(COc2ccc(Cc3cnc(N)nc3N)cc2OC)cc1 + COc1cc(N2CCC(N3CCN(C)CC3)CC2)ccc1Nc1ncc(Cl)c(Nc2ccccc2S(=O)(=O)C(C)C)n1 [NVP-TAE684] (first compound 1 µM, partner dose 0.08 µM) | 173% | 131% | 98.6% | 126% | 153% | 173% | 44.8% | 83.9% | 69.9% | 85.5% | 114% | 81% | 75.6% | 285% | 27.4% | 119% | 81.2% | 80.8%
4 | N#Cc1c(O)c2c(-c3ccc(-c4ccccc4O)cc3)csc2[nH]c1=O + Oc1nc(-c2ccc(C(F)(F)F)cc2)nc2c1CSCC2 [XAV939] (first compound 2 µM, partner dose 2 µM) | 26% | 134% | 121% | 81.2% | 130% | 326% | 134% | 85.2% | 543% | 76.2% | 24.7% | 43% | 95.5% | 94.4% | 36.2% | 31.8% | 115% | 33.2%
5 | CCc1ccc(CCOc2ccc(CC3SC(=O)NC3=O)cc2)nc1 (centres undefined) [pioglitazone] + CCN(CC)CCCCNc1ncc2cc(-c3cc(OC)cc(OC)c3)c(NC(=O)NC(C)(C)C)nc2n1 [PD173074] (first compound 2 µM, partner dose 0.1 µM) | 43.1% | 70.4% | 13.4% | 128% | 153% | 41.4% | 115% | 92.3% | 26.1% | 73.1% | 100% | 137% | 83.6% | 49% | 35.3% | 57.2% | 79.9% | 25.2%
6 | COc1cc2ncnc(Nc3ccc(Oc4ccccc4)cc3)c2cc1OC + CCCCCCCCCCCC1=C(O)C(=O)C=C(O)C1=O [Embelin] (first compound 2 µM, partner dose 1.2 µM) | 41.6% | 81.2% | 93.3% | 71.8% | 104% | 70.8% | 151% | 61.3% | 36.4% | 60.8% | 105% | 37.2% | 127% | 135% | 53.3% | 51.5% | 101% | 38.4%
7 | O=S(=O)(c1ccccc1)N(CC(F)(F)F)c1ccc(C(O)(C(F)(F)F)C(F)(F)F)cc1 + CCCCCCCCCCCC1=C(O)C(=O)C=C(O)C1=O [Embelin] (first compound 1.4 µM, partner dose 1.2 µM) | 78.5% | 106% | 131% | 99.3% | 145% | 72% | 188% | 81.2% | 95.1% |  | 132% | 177% | 299% | 138% | 72.1% | 72.9% | 61% | 103%
8 | O=C1NC(=O)/C(=C/c2ccc(-c3ccc(F)cc3O)o2)S1 + Oc1nc(-c2ccc(C(F)(F)F)cc2)nc2c1CSCC2 [XAV939] (first compound 1 µM, partner dose 2 µM) | 46.1% | 137% | 137% | 77.6% | 57% | 87.7% | 32.8% | 175% | 71% | 60% | 137% | 156% | 139% | 145% | 42% | 91.8% | 142% | 93.5%
9 | COc1ccc2c(c1)CCC1C2CCC2(C)C(NCCCCCCN3C(=O)C=CC3=O)CCC12 (centres undefined) + CCN(CC)CCCCNc1ncc2cc(-c3cc(OC)cc(OC)c3)c(NC(=O)NC(C)(C)C)nc2n1 [PD173074] (first compound 0.4 µM, partner dose 0.1 µM) | 101% | 75% | 187% | 40.9% | 138% | 86.9% | 257% | 94.3% | 68.5% |  | 111% | 116% | 106% | 272% | 77.5% | 118% | 44.4% | 45.9%
10 | NCC(=O)Nc1ccc(-n2nc(C(F)(F)F)cc2-c2ccc3c(ccc4ccccc43)c2)cc1 + CCN(CC)CCCCNc1ncc2cc(-c3cc(OC)cc(OC)c3)c(NC(=O)NC(C)(C)C)nc2n1 [PD173074] (first compound 1 µM, partner dose 0.1 µM) | 81.7% | 144% | 65.3% | 83% | 101% | 304% | 56.4% | 79.4% | 38.5% | 114% | 89.5% | 141% | 235% | 141% | 132% | 39.7% | 80.9% | 36.7%
11 | CN(NC(=O)CC(=O)NN(C)C(=S)c1ccccc1)C(=S)c1ccccc1 + Cn1cc(/C=C2\C(=O)Nc3cccnc32)c2ccccc21 [GW441756] (first compound 0.006 µM, partner dose 0.4 µM) | 57.3% | 81% | 259% | 236% | 247% | 82.9% | 130% | 94.3% | 50.6% | 132% | 135% | 90.1% | 80.2% | 137% | 38.8% | 85.1% | 139% | 395%
12 | COc1ccc(-c2ccc3c(N4CCOCC4)nc(N4C[C@@H](C)O[C@@H](C)C4)nc3n2)cc1CO + Oc1cc(-c2nc(-c3ccccc3)[nH]c2-c2ccncc2)ccc1Cl [L779450] (first compound 0.02 µM, partner dose 0.2 µM) | 181% | 185% | 57.4% | 81.2% | 100% | 153% | 85.8% | 99.6% | 92.6% | 135% | 53.8% | 36.5% | 67.3% | 166% | 41.7% | 80.9% | 222% | 84.3%
